Measured values from article PMC8748900.
No constants are given. Whether binding was seen depends on the method and setting. For some assays here: Binding can be weak; no strength is given. Tags and fused reporters may be left off the sequences shown. For some assays here: In cells and extracts the contact can be indirect.

Amino acid sequences for entries named in this document (tags omitted). A change or cut given only in a name is not applied to a line headed by its entry.
UniProt A0A1P8BCA2: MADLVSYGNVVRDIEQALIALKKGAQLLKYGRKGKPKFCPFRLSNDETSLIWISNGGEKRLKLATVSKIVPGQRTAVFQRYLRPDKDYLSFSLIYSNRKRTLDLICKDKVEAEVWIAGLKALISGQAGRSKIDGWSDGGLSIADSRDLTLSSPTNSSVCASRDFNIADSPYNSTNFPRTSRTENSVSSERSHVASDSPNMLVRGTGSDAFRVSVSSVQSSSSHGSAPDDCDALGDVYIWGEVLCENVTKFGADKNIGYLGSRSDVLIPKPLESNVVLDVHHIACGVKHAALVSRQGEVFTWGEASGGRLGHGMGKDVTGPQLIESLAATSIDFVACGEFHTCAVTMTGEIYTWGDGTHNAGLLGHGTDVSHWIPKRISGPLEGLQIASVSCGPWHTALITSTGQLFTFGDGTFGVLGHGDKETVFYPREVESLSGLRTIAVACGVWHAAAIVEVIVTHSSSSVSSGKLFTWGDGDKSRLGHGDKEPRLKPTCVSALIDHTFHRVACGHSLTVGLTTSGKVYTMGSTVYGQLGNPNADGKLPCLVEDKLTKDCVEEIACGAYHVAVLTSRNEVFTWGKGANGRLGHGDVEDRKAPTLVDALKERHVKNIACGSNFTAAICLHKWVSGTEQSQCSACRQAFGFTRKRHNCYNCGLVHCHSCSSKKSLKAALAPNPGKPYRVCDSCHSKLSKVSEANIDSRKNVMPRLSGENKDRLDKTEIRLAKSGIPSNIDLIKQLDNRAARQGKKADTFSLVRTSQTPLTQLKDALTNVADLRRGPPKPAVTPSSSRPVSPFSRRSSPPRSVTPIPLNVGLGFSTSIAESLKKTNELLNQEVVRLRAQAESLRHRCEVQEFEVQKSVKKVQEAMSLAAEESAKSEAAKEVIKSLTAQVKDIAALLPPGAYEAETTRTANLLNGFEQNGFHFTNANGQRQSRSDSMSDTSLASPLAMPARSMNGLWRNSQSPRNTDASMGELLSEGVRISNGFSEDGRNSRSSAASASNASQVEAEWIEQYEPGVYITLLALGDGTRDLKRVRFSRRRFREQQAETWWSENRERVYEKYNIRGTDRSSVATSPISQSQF
UniProt F4K0X5: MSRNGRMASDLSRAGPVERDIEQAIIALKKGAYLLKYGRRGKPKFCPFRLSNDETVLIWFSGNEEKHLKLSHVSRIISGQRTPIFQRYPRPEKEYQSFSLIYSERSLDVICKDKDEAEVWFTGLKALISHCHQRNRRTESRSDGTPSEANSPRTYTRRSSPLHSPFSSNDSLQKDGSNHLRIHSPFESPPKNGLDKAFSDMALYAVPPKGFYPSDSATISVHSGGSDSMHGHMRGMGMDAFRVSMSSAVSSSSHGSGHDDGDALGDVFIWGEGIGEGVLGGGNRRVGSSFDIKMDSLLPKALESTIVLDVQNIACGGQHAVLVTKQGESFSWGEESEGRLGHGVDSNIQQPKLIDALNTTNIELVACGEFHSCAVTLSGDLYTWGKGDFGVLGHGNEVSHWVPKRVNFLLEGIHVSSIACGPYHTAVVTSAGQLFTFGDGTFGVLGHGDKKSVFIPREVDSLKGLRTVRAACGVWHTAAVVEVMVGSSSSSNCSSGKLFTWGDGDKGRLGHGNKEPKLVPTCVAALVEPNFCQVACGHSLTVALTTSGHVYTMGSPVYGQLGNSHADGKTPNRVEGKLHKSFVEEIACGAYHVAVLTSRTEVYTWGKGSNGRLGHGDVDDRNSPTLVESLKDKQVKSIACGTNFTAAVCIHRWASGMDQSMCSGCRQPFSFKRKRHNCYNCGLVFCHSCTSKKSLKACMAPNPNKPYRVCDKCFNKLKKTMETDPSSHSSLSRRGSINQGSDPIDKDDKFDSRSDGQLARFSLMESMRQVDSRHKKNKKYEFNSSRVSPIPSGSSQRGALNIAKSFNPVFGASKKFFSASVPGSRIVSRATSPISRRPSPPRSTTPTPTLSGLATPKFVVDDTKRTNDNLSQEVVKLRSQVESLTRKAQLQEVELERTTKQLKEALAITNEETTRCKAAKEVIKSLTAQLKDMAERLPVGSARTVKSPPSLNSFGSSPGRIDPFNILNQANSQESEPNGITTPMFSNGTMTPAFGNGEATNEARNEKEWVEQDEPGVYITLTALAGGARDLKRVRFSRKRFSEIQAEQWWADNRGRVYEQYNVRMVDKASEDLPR

T1: BASL, full-length, fused with Gal4 DNA-binding domain (Arabidopsis thaliana) (UniProt Q5BPF3)
T1 sequence: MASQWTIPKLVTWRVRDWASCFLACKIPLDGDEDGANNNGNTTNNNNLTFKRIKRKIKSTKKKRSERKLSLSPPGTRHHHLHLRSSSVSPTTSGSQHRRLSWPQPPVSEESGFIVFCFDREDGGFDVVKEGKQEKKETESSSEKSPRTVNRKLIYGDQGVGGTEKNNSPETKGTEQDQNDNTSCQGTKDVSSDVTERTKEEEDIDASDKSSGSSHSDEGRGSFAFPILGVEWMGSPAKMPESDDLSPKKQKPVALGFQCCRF

T2: BASL fused with a split YFP half (BiFC) (Arabidopsis thaliana) (UniProt Q5BPF3)
T2 sequence: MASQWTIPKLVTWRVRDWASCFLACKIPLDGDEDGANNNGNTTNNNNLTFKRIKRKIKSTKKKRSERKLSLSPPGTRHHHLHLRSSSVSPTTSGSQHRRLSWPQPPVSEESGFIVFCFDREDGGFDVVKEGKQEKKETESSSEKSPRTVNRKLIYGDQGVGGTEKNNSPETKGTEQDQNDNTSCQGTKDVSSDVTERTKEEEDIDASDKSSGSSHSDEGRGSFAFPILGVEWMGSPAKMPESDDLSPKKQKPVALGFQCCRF


Columns and labels:
[1] = biological target: T1, BASL, full-length, fused with Gal4 DNA-binding domain (Arabidopsis thaliana); experiment: two-hybrid; pairwise; bait in pGBKT7 (BD), prey in pGADT7 (AD), strain AH109; tested on SD/-Leu/-Trp/-His, 3 days at 30 °C; 3-AT where needed
[2] = biological target: T2, BASL fused with a split YFP half (BiFC) (Arabidopsis thaliana); experiment: split reporter; BiFC (nYFP/cYFP) in N. benthamiana leaf epidermal cells, imaged three to five days after infiltration
[3] = biological target: BASL_C (C-terminal domain of BASL), yeast two-hybrid fusion (Arabidopsis thaliana); experiment: two-hybrid; pairwise; bait in pGBKT7 (BD), prey in pGADT7 (AD), strain AH109; tested on SD/-Leu/-Trp/-His, 3 days at 30 °C; 3-AT where needed
[4] = biological target: BASL_I (internal domain of BASL), yeast two-hybrid fusion (Arabidopsis thaliana); experiment: as above
[5] = biological target: BASL_N (N-terminal domain of BASL), yeast two-hybrid fusion (Arabidopsis thaliana); experiment: as above
[6] = biological target: GNOM fused with a split YFP half (BiFC) (Arabidopsis thaliana); experiment: split reporter; BiFC (nYFP/cYFP) in N. benthamiana leaf epidermal cells, imaged three to five days after infiltration
[7] = biological target: GNOM_C (C-terminal half of GNOM), fused with Gal4 DNA-binding domain (Arabidopsis thaliana); experiment: two-hybrid; pairwise; bait in pGBKT7 (BD), prey in pGADT7 (AD), strain AH109; tested on SD/-Leu/-Trp/-His, 3 days at 30 °C; 3-AT where needed
[8] = biological target: GNOM_N (N-terminal half of GNOM), fused with Gal4 DNA-binding domain (Arabidopsis thaliana); experiment: as above

binding [1] | binding [2] | Molecule | further results
binds | – | BRX domain of PRAF8/RLD2, fused with Gal4 activation domain (Arabidopsis thaliana) (domain or fragment) | –
binds | – | BRX domain of PRAF9/RLD3, fused with Gal4 activation domain (Arabidopsis thaliana) (domain or fragment) | –
– | binds | PRAF5 fused with a split YFP half (BiFC) (from UniProt A0A1P8BCA2) | –

Continued, molecule first:

Molecule | binding [1] | binding [2] | further results
BRX domain of PRAF5/RLD4, fused with Gal4 activation domain (Arabidopsis thaliana) (domain or fragment) | binds | – | –
PRAF4ΔBRX (genomic PRAF4 with BRX domain deletion) fused with a split YFP half (BiFC) (from UniProt Q947D2) | – | no binding | –
PRAF4▵RCC1 (PRAF4 with the RCC1 domain deleted), yeast two-hybrid fusion (from UniProt Q947D2) | binds | – | –
PRAF8 fused with a split YFP half (BiFC) (from UniProt F4K0X5) | – | binds | –
PRAF9 fused with a split YFP half (BiFC) (Arabidopsis thaliana) | – | binds | –
PRAF4_BRX (BRX domain of PRAF4/RLD1), fused with Gal4 activation domain (domain or fragment, UniProt Q947D2 1023-1078) AEWIEQYEPGVYITLVALHDGTRDLRRVRFSRRRFGEHQAETWWSENREKVYEKYN | – | – | binding [3]: no binding; binding [4]: binds; binding [5]: no binding
PRAF4 fused with a split YFP half (BiFC) (protein, UniProt Q947D2 1-1103) MADLVTYSNADHNLEQALITLKKGTQLLKYGRKGKPKFYPFRLSSDEKSLIWISSSGEKRLKLASVSKIVPGQRTAVFQRYLRPEKDYLSFSLLYNGKKKSLDLICKDKVEAEIWIGGLKTLISTGQGGRSKIDGWSGGGLSVDASRELTSSSPSSSSASASRGHSSPGTPFNIDPITSPKSAEPEVPPTDSEKSHVALDNKNMQTKVSGSDGFRVSVSSAQSSSSHGSAADDSDALGDVYIWGEVICDNVVKVGIDKNASYLTTRTDVLVPKPLESNIVLDVHQIACGVRHAAFVTRQGEIFTWGEESGGRLGHGIGKDVFHPRLVESLTATSSVDFVACGEFHTCAVTLAGELYTWGDGTHNVGLLGHGSDISHWIPKRIAGSLEGLHVASVSCGPWHTALITSYGRLFTFGDGTFGVLGHGDKETVQYPREVESLSGLRTIAVSCGVWHTAAVVEIIVTQSNSSSVSSGKLFTWGDGDKNRLGHGDKDPRLKPTCVPALIDYNFHKIACGHSLTVGLTTSGQVFTMGSTVYGQLGNLQTDGKLPCLVEDKLASEFVEEISCGAYHVAALTSRNEVYTWGKGANGRLGHGDLEDRKVPTIVEALKDRHVKYIACGSNYTAAICLHKWVSGAEQSQCSTCRLAFGFTRKRHNCYNCGLVHCHSCSSKKAFRAALAPSAGRLYRVCDSCYVKLSKVSEINDTNRRNSAVPRLSGENRDRLDKSEIRLAKFGTSNMDLIKQLDSKAAKQGKKTDTFSLGRNSQLPSLLQLKDAVQSNIGDMRRATPKLAQAPSGISSRSVSPFSRRSSPPRSATPMPSTSGLYFPVGIADNMKKTNEILNQEIVKLRTQVDSLTQKCEFQEVELQNSVKKTQEALALAEEESAKSRAAKEAIKSLIAQLKDVAEKLPPGESVKLACLQNGLDQNGFHFPEENGFHPSRSESMTSSISSVAPFDFAFANASWSNLQSPKQTPRASERNSNAYPADPRLSSSGSVISERIEPFQFQNNSDNGSSQTGVNNTNQVEAEWIEQYEPGVYITLVALHDGTRDLRRVRFSRRRFGEHQAETWWSENREKVYEKYNVRVSEKSTASQTHRDRDEEEEDIPH | – | – | binding [6]: binds
PRAF4/RLD1, full-length, yeast two-hybrid fusion (protein, UniProt Q947D2 1-1103) MADLVTYSNADHNLEQALITLKKGTQLLKYGRKGKPKFYPFRLSSDEKSLIWISSSGEKRLKLASVSKIVPGQRTAVFQRYLRPEKDYLSFSLLYNGKKKSLDLICKDKVEAEIWIGGLKTLISTGQGGRSKIDGWSGGGLSVDASRELTSSSPSSSSASASRGHSSPGTPFNIDPITSPKSAEPEVPPTDSEKSHVALDNKNMQTKVSGSDGFRVSVSSAQSSSSHGSAADDSDALGDVYIWGEVICDNVVKVGIDKNASYLTTRTDVLVPKPLESNIVLDVHQIACGVRHAAFVTRQGEIFTWGEESGGRLGHGIGKDVFHPRLVESLTATSSVDFVACGEFHTCAVTLAGELYTWGDGTHNVGLLGHGSDISHWIPKRIAGSLEGLHVASVSCGPWHTALITSYGRLFTFGDGTFGVLGHGDKETVQYPREVESLSGLRTIAVSCGVWHTAAVVEIIVTQSNSSSVSSGKLFTWGDGDKNRLGHGDKDPRLKPTCVPALIDYNFHKIACGHSLTVGLTTSGQVFTMGSTVYGQLGNLQTDGKLPCLVEDKLASEFVEEISCGAYHVAALTSRNEVYTWGKGANGRLGHGDLEDRKVPTIVEALKDRHVKYIACGSNYTAAICLHKWVSGAEQSQCSTCRLAFGFTRKRHNCYNCGLVHCHSCSSKKAFRAALAPSAGRLYRVCDSCYVKLSKVSEINDTNRRNSAVPRLSGENRDRLDKSEIRLAKFGTSNMDLIKQLDSKAAKQGKKTDTFSLGRNSQLPSLLQLKDAVQSNIGDMRRATPKLAQAPSGISSRSVSPFSRRSSPPRSATPMPSTSGLYFPVGIADNMKKTNEILNQEIVKLRTQVDSLTQKCEFQEVELQNSVKKTQEALALAEEESAKSRAAKEAIKSLIAQLKDVAEKLPPGESVKLACLQNGLDQNGFHFPEENGFHPSRSESMTSSISSVAPFDFAFANASWSNLQSPKQTPRASERNSNAYPADPRLSSSGSVISERIEPFQFQNNSDNGSSQTGVNNTNQVEAEWIEQYEPGVYITLVALHDGTRDLRRVRFSRRRFGEHQAETWWSENREKVYEKYNVRVSEKSTASQTHRDRDEEEEDIPH | – | – | binding [7]: no binding; binding [8]: no binding
